This passage reports binding results from patent US20180037631A1.

For experiment [1], the target named is monkey EGFR (monkey). The experiment can be described thus: SPR Biacore.
Experiment [2] deals with rat EGFR (rat). The experiment can be described thus: SPR Biacore. For orientation: Surface plasmon resonance follows binding to a sensor surface in real time, without labels.

Results are given in words; binding and its absence hold for the method and conditions named. A result given as binding can be weak or reduced; the word gives no strength. Sequences can lack the tags named with a protein.

B1: I1-GS10-E85 pegylated, His-tagged (designed binder)
chain: MGVSDVPRDLEVVAATPTSLLISWSARLKVARYYRITYGETGGNSPVQEFTVPKNVYTATISGLKPGVDYTITVYAVTRFRDYQPISINYRTEIDKGSGSGSGSGSGSGSGSGSGSVSDVPRDLEVVAATPTSLLISWTQGSTHYQYYRITYGETGGNSPVQEFTVPGMVYTATISGLKPGVDYTITVYAVTDYFDRSTHEYKYRTTPISINYRTEIDKPCQHHHHHH
modifications: 40 kDa branched PEG on the Cys of the C-terminal Cys tail
As for B1, the binding result in experiment [1] and in experiment [2] was “binds” in each case.

B2: E4-GS10-I1 pegylated, His-tagged (designed binder)
chain: MGVSDVPRDLEVVAATPTSLLISWHERDGSRQYYRITYGETGGNSPVQEFTVPGGVRTATISGLKPGVDYTITVYAVTDYFNPTTHEYIYQTTPISINYRTEIDKGSGSGSGSGSGSGSGSGSGSVSDVPRDLEVVAATPTSLLISWSARLKVARYYRITYGETGGNSPVQEFTVPKNVYTATISGLKPGVDYTITVYAVTRFRDYQPISINYRTEIDKPCQHHHHHH
modifications: 40 kDa branched PEG on the Cys of the C-terminal Cys tail
Turning to B2, the binding entry in experiment [1] and in experiment [2] was “binds” throughout.

B3: I1-GS10-E4 pegylated, His-tagged (designed binder)
chain: MGVSDVPRDLEVVAATPTSLLISWSARLKVARYYRITYGETGGNSPVQEFTVPKNVYTATISGLKPGVDYTITVYAVTRFRDYQPISINYRTEIDKGSGSGSGSGSGSGSGSGSGSVSDVPRDLEVVAATPTSLLISWHERDGSRQYYRITYGETGGNSPVQEFTVPGGVRTATISGLKPGVDYTITVYAVTDYFNPTTHEYIYQTTPISINYRTEIDKPCQHHHHHH
modifications: 40 kDa branched PEG on the Cys of the C-terminal Cys tail
With B3, the binding result in experiment [1] and in experiment [2] was “binds” throughout.
